In publication PMC7819943, “Rice protein-binding microarrays: a tool to detect cis-acting elements near promoter regions in rice”:
This is one part of the list.

Amino acid sequences for entries named in this document (tags omitted).
UniProt Q0JBA9, entry or part of it: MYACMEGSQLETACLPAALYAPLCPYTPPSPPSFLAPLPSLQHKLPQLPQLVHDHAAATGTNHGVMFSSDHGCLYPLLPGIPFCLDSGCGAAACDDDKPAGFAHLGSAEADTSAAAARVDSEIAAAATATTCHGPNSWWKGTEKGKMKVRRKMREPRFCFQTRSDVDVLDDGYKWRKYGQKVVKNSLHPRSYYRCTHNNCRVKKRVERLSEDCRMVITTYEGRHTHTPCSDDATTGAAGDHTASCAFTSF

target: OsWRKY34 (Oryza sativa, UniProt Q0JBA9 1-250); test: protein-binding microarray (RPBM); PBS, 2% BSA, 51.3 ng/ul salmon testes DNA, 50 uM zinc acetate, 200 nM TF, 25 C, 1 h; high values mean tight binding; conditions: protein: recombinant; tags: N-terminal polyhistidine and DsRed monomer fusion (pET32a); label: CyDye5-dUTP incorporated in the synthesized complementary strand; 3' TTTTT single-stranded linker to array surface; dsDNA, one strand shown
In short: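 Polyhistidine-tagged DsRed fusions of transcription factors, joined at the N-terminus, were expressed in E. coli BL21-CodonPlus and isolated on Ni–NTA. They were incubated at 200 nM for 1 h at 25 °C on a custom Agilent array, double-stranded and BSA-blocked, in PBS with 2% BSA, salmon testes DNA and 50 µM zinc acetate. The binding signal is per-feature fluorescence intensity (arbitrary units) read on an Axon 4000B scanner after washing.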

Sequence | binding signal
CATATTATTTTCTGTTTGTAAATACACTGTTGGACTTATTCGGAGTCACCTAGTGCAG | 8070 fluorescence intensity (a.u.)
GCACCCAGCTGCAACATGGATCACCGAACACATCGATCCACGGAGTCACCTAGTGCAG | 10300 fluorescence intensity (a.u.)
AACCTAGGGGCAGTTCCCATTTCTCCCTCATCGTCATCTTCGGAGTCACCTAGTGCAG | 11300 fluorescence intensity (a.u.)
GTGGGCAGCGGCGGCGGCCGGTGGGAGGAGGGGAAGCATGCGGAGTCACCTAGTGCAG | 8380 fluorescence intensity (a.u.)
CAAAATCTTGCACACCACACTTGATCATCACTTTTTTTTTCGGAGTCACCTAGTGCAG | 10800 fluorescence intensity (a.u.)
TCTTTGATTAACCACTTCACCAGATAACTCATCCCACTTTCGGAGTCACCTAGTGCAG | 8530 fluorescence intensity (a.u.)
CCATTCCATGGCTATCAGGAGAGGGTTCATGGGGAGGGTACGGAGTCACCTAGTGCAG | 8940 fluorescence intensity (a.u.)
GCCCTTTTCTTGAGCACCCACATCGGCCTCAACACGGATCCGGAGTCACCTAGTGCAG | 8400 fluorescence intensity (a.u.)
AGCCCGTTTTGTTTGTTTCTTCCGGCCTCCGTGTGGTACACGGAGTCACCTAGTGCAG | 12700 fluorescence intensity (a.u.)
GCCGCCGTTGCAGTGCCGCTGCTCAACCCGTTCACCATCGCGGAGTCACCTAGTGCAG | 10300 fluorescence intensity (a.u.)
CCTTAGCGGTATCCCTATTTATCTATTTATACTGTGTTTACGGAGTCACCTAGTGCAG | 9860 fluorescence intensity (a.u.)
CCGCTAAGACTTGCCTACTCCACTACCGCTTCTACTGCTTCGGAGTCACCTAGTGCAG | 10400 fluorescence intensity (a.u.)
TTCAATCATGTTCCTTAGTTCACTAATGTTCAACTGCCAACGGAGTCACCTAGTGCAG | 8270 fluorescence intensity (a.u.)
TAGATGAAATGGGTTGGGTTGATTTGGGTTGAAATATGATCGGAGTCACCTAGTGCAG | 21800 fluorescence intensity (a.u.)
TTCTTATTCTGTCGGTTGTGTGGTGGCAGGGCAGTTAATTCGGAGTCACCTAGTGCAG | 8630 fluorescence intensity (a.u.)
ACTTCATTCTCTCTTTTTTTTTTACACGTAAGACGGTAAACGGAGTCACCTAGTGCAG | 9220 fluorescence intensity (a.u.)
AGATTATTTACCGTGCGGGGTTATATATAGGGGAGGTTTTCGGAGTCACCTAGTGCAG | 11300 fluorescence intensity (a.u.)
CAATTTCCACCCTTCCTTTTTCTCCGAAGCTAACGCGGCGCGGAGTCACCTAGTGCAG | 8620 fluorescence intensity (a.u.)
GAGAAGTTGATATGCATTGGTTTTTGGAGTTGGCGGGTTTCGGAGTCACCTAGTGCAG | 11500 fluorescence intensity (a.u.)
CAACCTGTAATCATATCGTCGTGCTGTTTGTGATGTTTGTCGGAGTCACCTAGTGCAG | 11000 fluorescence intensity (a.u.)
TGGAGCTAGTAGTTGGCTATACTATTGAACTTGCTCTTAACGGAGTCACCTAGTGCAG | 9040 fluorescence intensity (a.u.)

Taken from above.
In binding signal, CCGCTAAGACTTGCCTACTCCACTACCGCTTCTACTGCTTCGGAGTCACCTAGTGCAG reads 10400 fluorescence intensity (a.u.)
In binding signal, TTCAATCATGTTCCTTAGTTCACTAATGTTCAACTGCCAACGGAGTCACCTAGTGCAG reads 8270 fluorescence intensity (a.u.)

Next results follow.

Sequence | binding signal
GCCGAGGAAACCCTAGCGCCGCATCCGCCTCCTATATATTCGGAGTCACCTAGTGCAG | 9050 fluorescence intensity (a.u.)
CCATATTATTTGTCGTTTTGAGTTTTTGTTTGTAATATATCGGAGTCACCTAGTGCAG | 9040 fluorescence intensity (a.u.)
ATTTAGTCTTGTGTCATCAAATCCATTTAGTGTCTTTAAACGGAGTCACCTAGTGCAG | 8020 fluorescence intensity (a.u.)
GCTAACTCGTCACGTCATTAGAAACCGTACACAATATTGTCGGAGTCACCTAGTGCAG | 9020 fluorescence intensity (a.u.)
TGTGGTCAATAGTAAGTAGTTTGGCAACATCCCACCAGTCCGGAGTCACCTAGTGCAG | 8700 fluorescence intensity (a.u.)
CGGAAGCATGGCACAATCCGGCACACCAACTCGTCGATTCCGGAGTCACCTAGTGCAG | 8420 fluorescence intensity (a.u.)
GTGTGTGATGATGCATGCATGCCTATCTTGATTGGAAAACCGGAGTCACCTAGTGCAG | 8210 fluorescence intensity (a.u.)
GGGGCAGTTTTTGGATGGTTTGGCTCGCGAGCTTAACGAGCGGAGTCACCTAGTGCAG | 8130 fluorescence intensity (a.u.)
TCCTTTTCTTATCATCTACACAGTGTTACCAGTCTACTAACGGAGTCACCTAGTGCAG | 9960 fluorescence intensity (a.u.)
ACCTGAACTTGTCCTGCACTCCTGCTGCTCCACCATCGCTCGGAGTCACCTAGTGCAG | 10100 fluorescence intensity (a.u.)
GTGCTCACCTTGTCAGTCTTCTTCCTGAGTTTCCTGAACCCGGAGTCACCTAGTGCAG | 10000 fluorescence intensity (a.u.)
CTTGGAACTGGCAGCCGCTGGCCTTTGTGTTCTTGATGATCGGAGTCACCTAGTGCAG | 8460 fluorescence intensity (a.u.)
ACACAGTATACACTAATTCAAACAATATTTCACTCATGATCGGAGTCACCTAGTGCAG | 8410 fluorescence intensity (a.u.)
CATCATATGCAAATGCAACACATGCAGACCGACAAGTCAACGGAGTCACCTAGTGCAG | 8020 fluorescence intensity (a.u.)
TATTGACATTTTTTTAAGTACTCCACGTGTTCGATTTGTACGGAGTCACCTAGTGCAG | 8260 fluorescence intensity (a.u.)
TATGGATCTCATCTCTCCACACTTCTGCCCCACCAACAGCCGGAGTCACCTAGTGCAG | 10300 fluorescence intensity (a.u.)
TCTCGGTTTTTTCGGTCTCGGTCTCGGTCTAACCGAATTCCGGAGTCACCTAGTGCAG | 9120 fluorescence intensity (a.u.)
AGTCTTTACTTATAAGTGCTTATGATTTTTTTTTTGTGAACGGAGTCACCTAGTGCAG | 8290 fluorescence intensity (a.u.)
CATGCCGTGCTCGCGCTATTAATGTGGTGGTGGTGGTGGTCGGAGTCACCTAGTGCAG | 10800 fluorescence intensity (a.u.)
CAGAGCTCTTCCTGCTGTACCTACCAAGCTCTTACTTTGACGGAGTCACCTAGTGCAG | 8060 fluorescence intensity (a.u.)
CTCCACCTTCAACCACTTCTTCTTCTTCTTCTTCTTCTTCCGGAGTCACCTAGTGCAG | 8520 fluorescence intensity (a.u.)
